Reference: patent US7345049B2, “Phenylalanine derivatives” (Ajinomoto Co., Inc., priority 2003, dated 2008)
The match of structure and compound is tentative.

Protein sequences, listed by entry. Tags and fused reporters are not part of them. Residues count along the entry.
UniProt P05556, 21-798 limits assumed: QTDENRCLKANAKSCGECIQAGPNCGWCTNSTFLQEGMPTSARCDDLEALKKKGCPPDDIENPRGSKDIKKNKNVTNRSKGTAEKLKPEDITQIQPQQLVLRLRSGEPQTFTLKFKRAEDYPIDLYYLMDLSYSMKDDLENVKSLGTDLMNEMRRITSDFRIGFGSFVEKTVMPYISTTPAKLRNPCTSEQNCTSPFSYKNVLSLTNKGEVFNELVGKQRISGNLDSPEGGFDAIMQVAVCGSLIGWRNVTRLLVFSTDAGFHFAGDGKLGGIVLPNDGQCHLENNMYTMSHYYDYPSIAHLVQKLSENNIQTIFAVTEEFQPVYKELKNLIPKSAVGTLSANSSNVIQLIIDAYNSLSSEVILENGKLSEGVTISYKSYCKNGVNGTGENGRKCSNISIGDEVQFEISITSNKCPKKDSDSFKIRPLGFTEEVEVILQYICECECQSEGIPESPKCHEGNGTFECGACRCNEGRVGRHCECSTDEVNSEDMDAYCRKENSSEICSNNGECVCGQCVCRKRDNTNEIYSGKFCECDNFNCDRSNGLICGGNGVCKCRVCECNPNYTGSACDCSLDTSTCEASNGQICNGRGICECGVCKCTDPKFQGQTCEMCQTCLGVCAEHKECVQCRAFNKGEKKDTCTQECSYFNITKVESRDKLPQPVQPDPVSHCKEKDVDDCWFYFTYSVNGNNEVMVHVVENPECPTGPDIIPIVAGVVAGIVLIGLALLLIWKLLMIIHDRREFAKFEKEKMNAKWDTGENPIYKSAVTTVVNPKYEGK
UniProt P13612, 34-1032 limits assumed: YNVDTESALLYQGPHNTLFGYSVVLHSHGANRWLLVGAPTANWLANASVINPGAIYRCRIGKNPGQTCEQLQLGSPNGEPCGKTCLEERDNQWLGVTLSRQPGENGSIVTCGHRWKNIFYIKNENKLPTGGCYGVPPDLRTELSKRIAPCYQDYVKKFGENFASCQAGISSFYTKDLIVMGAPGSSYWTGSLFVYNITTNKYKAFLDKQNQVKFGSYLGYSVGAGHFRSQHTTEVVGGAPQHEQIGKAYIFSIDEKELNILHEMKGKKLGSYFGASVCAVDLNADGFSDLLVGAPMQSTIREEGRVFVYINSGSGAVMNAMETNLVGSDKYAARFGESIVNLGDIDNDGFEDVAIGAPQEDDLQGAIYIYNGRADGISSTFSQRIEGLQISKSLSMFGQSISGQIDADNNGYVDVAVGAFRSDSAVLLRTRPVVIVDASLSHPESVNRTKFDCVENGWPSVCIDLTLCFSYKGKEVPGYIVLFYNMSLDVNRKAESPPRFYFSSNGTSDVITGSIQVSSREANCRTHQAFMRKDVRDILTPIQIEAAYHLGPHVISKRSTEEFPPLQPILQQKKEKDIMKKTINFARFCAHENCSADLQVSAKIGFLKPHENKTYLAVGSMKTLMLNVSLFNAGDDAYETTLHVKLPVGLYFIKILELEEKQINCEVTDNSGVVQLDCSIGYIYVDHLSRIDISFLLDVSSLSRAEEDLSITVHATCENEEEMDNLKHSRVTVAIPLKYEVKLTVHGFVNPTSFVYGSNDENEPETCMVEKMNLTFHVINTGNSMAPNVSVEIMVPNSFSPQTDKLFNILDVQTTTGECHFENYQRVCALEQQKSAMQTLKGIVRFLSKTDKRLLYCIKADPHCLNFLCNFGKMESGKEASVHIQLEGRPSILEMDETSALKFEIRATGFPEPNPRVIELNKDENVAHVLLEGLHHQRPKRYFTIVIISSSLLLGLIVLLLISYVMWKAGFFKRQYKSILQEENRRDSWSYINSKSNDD

Molecular target: VCAM-1/α4β1 integrin binding (Homo sapiens, UniProt P05556+P13612)
Assay: Assay of antagonistic activity to VCAM-1/α4β1 integrin binding under the existence of blood serum (Jurkat cell adhesion to VCAM-1/Fc)
Conditions: read-out: IC50, antagonistic activity to VCAM-1/α4β1 integrin binding; Jurkat cells, recombinant human VCAM-1/Fc, 50% human blood serum; tested form: TFA
Procedure: Assay of Antagonistic Activity to VCAM-1/α4β1 Integrin Binding Under the Existence of Blood Serum
The capacity of a test substance antagonistic to the binding of cell strain of human T cells, Jurkat (ATCC TIB-152), known to express integrin α4β1, to VCAM-1 was determined.
Fifty μl/well of a solution (500 ng/ml) of recombinant human VCAM-1/Fc (R & D systems) diluted with buffer A (0.1 M NaHCO3, pH 9.6) was added to a 96-well microtiter plate (Nunc Maxisorp). After the incubation at 4° C. overnight and washing once with PBS, a buffer (buffer B) obtained by diluting Block Ace (Snow Brand Milk Products Co., Ltd.) with PBS to ½ concentration was added in an amount of 150 μl/well. After the incubation at room temperature for 2 hours, buffer B was removed and the plate was washed with PBS once.
Jurkat cells were washed with Dulbecco modified Eagle medium (SIGMA, hereinafter referred to as “DMEM”) once. […]
Sixty μl of a test substance of various concentrations obtained by the dilution with the binding buffer was added to a round-bottom, 96-well plate (IWAKI). […] Its absorbance of 490 nm was determined with a plate reader (Molecular Devices, Vmax). The absorbance thus obtained detects an activity of lactate dehydrogenase (LDH) dissolved in the supernatant of each well. Namely, the absorbance is proportional to the number of remaining Jurkat cells on the plate via the binding to VCAM-1. […]

In the case of `CC(C)CNCc1ccc2c(c1)c(=O)n(-c1ccc(C[C@H](NC(=O)c3c(Cl)cccc3Cl)C(=O)O)cc1)c(=O)n2C`, the IC50 is reported as 6.4 nM.
